Results on three molecules are retold here after patent publication US8524454 (RESEARCH FOUNDATION OF STATE UNIVERSITY OF NEW YORK, dated 2013).

Sequences of proteins named here, by UniProt entry; tags and fusion partners are left off. A change or cut given only in a name is not applied to a line headed by its entry.
UniProt Q9NPF0: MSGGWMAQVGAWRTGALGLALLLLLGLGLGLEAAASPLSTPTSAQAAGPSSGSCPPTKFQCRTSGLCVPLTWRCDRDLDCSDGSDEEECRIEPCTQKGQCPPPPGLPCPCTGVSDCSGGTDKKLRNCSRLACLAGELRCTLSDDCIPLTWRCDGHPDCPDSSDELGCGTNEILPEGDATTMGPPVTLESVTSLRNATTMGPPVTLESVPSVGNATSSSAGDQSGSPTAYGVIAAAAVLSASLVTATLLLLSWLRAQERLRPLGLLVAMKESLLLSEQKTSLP

These are yes or no findings as the source states them, for the method shown. Some binding calls cover weakened binding; strength is not graded here.

For assay [1], the target named is T1, wheat germ agglutinin (WGA)-agarose (UniProt P10968).
T1 sequence (looked up): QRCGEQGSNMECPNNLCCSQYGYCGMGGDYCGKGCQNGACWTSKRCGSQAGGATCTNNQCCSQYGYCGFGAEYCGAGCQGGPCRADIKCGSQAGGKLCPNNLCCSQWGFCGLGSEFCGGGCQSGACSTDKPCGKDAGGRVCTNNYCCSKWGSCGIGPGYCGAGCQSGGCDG
Briefly: lectin affinity chromatography (carbohydrate-mediated).

The target in assay [2] is T1, wheat germ agglutinin (WGA)-agarose. As to the kind of experiment: lectin binding (carbohydrate-mediated).
Assay [3] has as its target recombinant extracellular fragment of TCblR produced in HEK 293 cells (human) (UniProt Q9NPF0). As to the kind of experiment: purified fragment; assay not described.
Assay [4] shares this target. Briefly: TC-Cbl binding assay of HEK 293 culture medium.

Regarding “recombinant extracellular fragment of TCblR produced in HEK 293 cells (from UniProt Q9NPF0 32-247) (receptor)”, in assay [1], the binding entry is “binds”.
For the molecule “recombinant extracellular (EXC) domain of TCblR produced in NSO myeloma cells, cleaved from the Fc fusion protein (from UniProt Q9NPF0 36-229) (receptor)”, in assay [2], the binding result is on record as “binds”.

B1: holo-transcobalamin (recombinant human TC saturated with cobalamin) (ligand, UniProt P20062 19-427, looked up)
chain: EMCEIPEMDSHLVEKLGQHLLPWMDRLSLEHLNPSIYVGLRLSSLQAGTKEDLYLHSLKLGYQQCLLGSAFSEDDGDCQGKPSMGQLALYLLALRANCEFVRGHKGDRLVSQLKWFLEDEKRAIGHDHKGHPHTSYYQYGLGILALCLHQKRVHDSVVDKLLYAVEPFHQGHHSVDTAAMAGLAFTCLKRSNFNPGRRQRITMAIRTVREEILKAQTPEGHFGNVYSTPLALQFLMTSPMRGAELGTACLKARVALLASLQDGAFQNALMISQLLPVLNHKTYIDLIFPDCLAPRVMLEPAAETIPQTQEIISVTLQVLSLLPPYRQSISVLAGSTVEDVLKKAHELGGFTYETQASLSGPYLTSVMGKAAGEREFWQLLRDPNTPLLQGIADYRPKDGETIELRLVSW
notes: also called TC-Cbl; holo TC
As to B1, the binding result in assay [3] and in assay [4] was “binds” throughout.
